Measured values reported in PubChem BioAssay AID504467 (National Center for Advancing Translational Sciences (NCATS), 2011).
Hit rate of the full screen: of about 330,000 compounds, about 7,700 (2.3%) were called active. The shares of active, inactive and inconclusive entries below differ from those in the screen. Calls come from the whole dose curve; as a rule, active = well fitted inhibition curve with a large enough effect; inconclusive = small, poorly fitted or top-dose-only effect, or effect the other way; inactive = flat fitted curve, though single readings scatter. Potencies of inconclusive entries are doubtful fits and often do not repeat.

Experiment: qHTS screen for small molecules that inhibit ELG1-dependent DNA repair in human embryonic kidney (HEK293T) cells expressing luciferase-tagged ELG1; note: nearly all actives have a fitted effect of over 55% in size
Settings: HEK293T ELG1-luciferase reporter, luminescence, 16 h, DNA damage induced by 5-fluorouridine; activity change, negative = inhibition: at 46.1 µM (top of the series)
In short: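 Luminescence from the luciferase reporter, measured 30 min after ONE-Glo reagent at room temperature, was the read-out. Beforehand, 2,000 cells per well were exposed for 16 hr at 37 °C to 5-fluorouridine together with compound or vehicle.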
% is set by controls: 0 for no effect and ±100 for the full control effect; potency is the fitted concentration of half-maximal effect.

Structure (SMILES) | Potency | activity change, negative = inhibition
CCOC(=O)c1[nH]c2ccc(C)cc2c1NC(=O)CN1CCCCC1 | inconclusive: 10.3 µM [inhibitor, partial curve, poor fit] | –
S=c1[nH]nc(C2CCCCC2)n1Cc1ccccc1 | – | inactive: -3.79%
CN1CCSc2ccc(C(=O)Nc3cccc(F)c3)cc21 | inconclusive: 2.06 µM [activator, partial curve] | –
Cc1ccccc1CN1CCCC(C(=O)Nc2ccc(-c3ccn[nH]3)cc2)C1 (configuration not stated) | – | inactive: -8.62%
COc1ccccc1C(=O)Nc1ccnn1C1CCN(CC2CC=CCC2)CC1 (configuration not stated) | inconclusive: 11.6 µM [activator, partial curve, poor fit] | –
COc1cc(C(=O)N/N=C(\C)Cn2nc([N+](=O)[O-])cc2C)ccc1O | – | inactive: 0.561%
Cc1ccc(-c2nnc(SCc3nc4ccccc4[nH]3)n2Cc2ccco2)cc1 | inconclusive: 23.1 µM [inhibitor, single point] | –
CC(C)(C)OC(=O)COc1ccc(/C=N/NC(=O)CN2CCCCC2)cc1 | inconclusive: 18.3 µM [activator, partial curve] | –
Cc1ccc(C(=O)COC(=O)c2ccccc2NC(=O)c2ccccc2)cc1[N+](=O)[O-] | inconclusive: 29.1 µM [inhibitor, single point] | –
CC1=NN(C(N)=S)C(=O)C1N=Nc1ccc(Cl)cc1Cl (configuration not stated) | inconclusive: 15.8 µM [activator, partial curve, poor fit] | –
O=C(Nc1ccc2c(c1)OCCO2)c1ccc(S(=O)(=O)N2CCCCC2)cc1 | inconclusive: 6.51 µM [activator, partial curve, poor fit] | –
Cc1cccc(/C=N/NC(=O)c2cc(Br)ccc2OCc2ccccc2)n1 | – | inactive: -26%
O=C(Nc1ccc(CN2CCOCC2)cc1)c1ccc(F)cc1 | inconclusive: 8.2 µM [activator, partial curve] | –
O=C(CCSc1nc(-c2ccco2)cc(C(F)(F)F)n1)N1CCN(c2ccccn2)CC1 | inconclusive: 23.1 µM [inhibitor, single point] | –
Cc1cccc(-n2nc3c(c2NC(=O)C(C)C)CSC3)c1 | inconclusive: 25.9 µM [activator, single point] | –
CC(C)c1ccc(NC2CCCN(C(=O)C3=NN(C)C(=O)CC3)C2)cc1 (configuration not stated) | inconclusive: 23.1 µM [activator, partial curve, poor fit] | –
COc1ccc(OCC(=O)Nc2ccc(S(=O)(=O)N3CCOCC3)cc2)cc1 | – | inactive: -0.027%
Cc1nc2ccc(S(=O)(=O)NCC(=O)N3CCN(c4ccccc4)CC3)cc2s1 | active: 23.1 µM | –
COCCOC1CCN(C(=O)C2CCC(=O)N(CCc3ccccc3)C2)CC1 (configuration not stated) | – | inactive: 6.83%
Cn1c(N)c(C(=O)COc2ccc(Cl)cc2Cl)c(=O)n(C)c1=O | inconclusive: 29.1 µM [activator, single point] | –
COc1cc(F)ccc1S(=O)(=O)n1c(C)nc2ccccc21 | inconclusive: 10.3 µM [inhibitor, partial curve, poor fit] | –
CCCC(=O)Nc1nc2ccc(S(N)(=O)=O)cc2s1 | inconclusive: 23.1 µM [activator, single point] | –
Cc1nc2ccccn2c1C(=O)NNC(=O)Nc1cccc(C(F)(F)F)c1 | – | inactive: -22.5%
CCOc1ccccc1C(=O)N(C)CC(=O)Nc1ccc(OC)cc1 | – | inactive: -6.36%

Structure (SMILES) | Potency | activity change, negative = inhibition
CCC(CC)NC(=O)c1cccc(Oc2ccccc2)c1 | – | inactive: -20.9%
CC(=O)Nc1ccc(-c2csc(NC(=O)C3CC(=O)N(c4ccc5c(c4)OCCO5)C3)n2)cc1 (configuration not stated) | inconclusive: 32.6 µM [inhibitor, single point] | –
COc1ccc2o/c(=N/NC(=O)c3cccs3)c(C(N)=O)cc2c1 | inconclusive: 2.59 µM [activator, single point] | –
CCC(C)Nc1ncnc2c1cnn2Cc1ccc(Cl)cc1 (configuration not stated) | inconclusive: 20.6 µM [inhibitor, single point] | –
CC(C)CN(C(=O)CSc1nc(-c2ccccc2)cn1N)c1c(N)n(Cc2ccccc2)c(=O)[nH]c1=O | inconclusive: 4.11 µM [activator, partial curve] | –
COCCNC(=S)N(CCN(C)C)Cc1cc2cc3c(cc2[nH]c1=O)OCO3 | inconclusive: 35.5 µM [inhibitor, single point] | –
COc1ccc(C2=NN(C(=O)CN3CCCCC3)C(c3ccc(OC)cc3)C2)cc1 (configuration not stated) | – | inactive: 0.0911%
O=C(COc1ccccc1)NCCSCc1ccccc1Cl | inconclusive: 20.6 µM [activator, partial curve] | –
CN(C)c1nc(-c2ccccc2)c2cc(Cl)ccc2n1 | – | inactive: 2.9%
COCCn1c(=O)[nH]c2cc(C(=O)NCCCN3CCN(c4ccc(F)cc4)CC3)ccc2c1=O | inconclusive: 29.1 µM [inhibitor, single point] | –
O=C(O)c1cc(-c2cccnc2)nc2ccc(Br)cc12 | – | inactive: -6.22%
COc1ccc(OC)c(NC(=O)Cn2cc(C=O)c3ccccc32)c1 | – | inactive: -18.5%
O=C(NC(=S)NCCO)c1sc2ccccc2c1Cl | inconclusive: 18.3 µM [activator, partial curve] | –
CC(C)(C)[C@H]1COC(=O)[C@@H](Cc2ccc(F)cc2)C/C=C\C[C@@H](CC(=O)N[C@H](CO)Cc2ccccc2)C(=O)N1 | inconclusive: 23.1 µM [inhibitor, single point] | –
COc1ccc(CNCc2cccc(OC)c2OC)cc1Br | inconclusive: 29.1 µM [inhibitor, partial curve, poor fit] | –
CCOC(=O)N/N=C\c1ccc(-c2cc(Cl)ccc2Cl)o1 | – | inactive: -27.7%
OCCn1c(-c2ccccc2)csc1=Nc1ccccc1 | inconclusive: 29.1 µM [activator, single point] | –
COC(=O)c1sc(NC(=O)CC(C)C)c(C(=O)OC)c1C | inconclusive: 23.1 µM [inhibitor, partial curve, poor fit] | –
COc1ccc(C2N=C(c3ccccc3)C(C)(C)N2O)cc1 (configuration not stated) | – | inactive: -2.24%
Cc1ccc(-n2c(O)c(C=Nc3ccc4c(c3)OCO4)c3ccccc3c2=O)cc1C | inconclusive: 2.31 µM [inhibitor, partial curve, poor fit] | –
CC(C)(C)CC(C)(C)NCC(O)COCCOc1ccc(Br)cc1 (configuration not stated) | active: 23.1 µM | –
COC(=O)c1sc2nc(C)nc(SCC(=O)Nc3sccc3C(N)=O)c2c1C | inconclusive: 29.1 µM [inhibitor, single point] | –
NS(=O)(=O)c1ccc(CCNC(=O)NC2CCCCC2)cc1 | inconclusive: 20.6 µM [activator, partial curve, poor fit] | –
CCc1nc(Nc2ccc3nccnc3c2)c2oc3ccccc3c2n1 | active: 2.59 µM | –

Structure (SMILES) | Potency | activity change, negative = inhibition
COc1ccccc1N1CCN(C(=O)CSc2nc3ccccc3nc2N2CCC(C)CC2)CC1 | active: 25.9 µM | –
Cc1nc2ccccc2n1CCOc1ccc([N+](=O)[O-])cc1 | – | inactive: -19.7%
CCOc1cc(S(=O)(=O)NCCCN2CCOCC2)c(C)cc1C | – | inactive: -10.4%
Nc1cc(=O)[nH]c(SCCSc2ccccc2)n1 | – | inactive: -10.8%
Cc1cc(C(=O)NNC(=O)c2cccs2)c(C)o1 | inconclusive: 20.6 µM [activator, single point] | –
O=C(CSc1nnc2scc(-c3ccccc3)n12)NCc1ccc2c(c1)OCO2 | – | inactive: -1.03%
Cc1sc2nc(CSC(C)C(=O)Nc3cc(S(C)(=O)=O)ccc3Cl)[nH]c(=O)c2c1C (configuration not stated) | – | inactive: -5.54%
CCN1C(=O)[C@H]2[C@@H](c3ccc(-c4cc(C(C)=O)cs4)cc3)N3CCC[C@@]3(C(=O)OC)[C@H]2C1=O | inconclusive: 8.91 µM [inhibitor, single point] | –
CC(C)[C@H](NC(=O)OCc1ccccc1)C(=O)OCC(=O)N1CCN(c2ccccc2)CC1 | – | inactive: -0.505%
c1ccc(Cc2cc[n+](Cc3ccccc3)cc2)cc1 | inconclusive: 8.2 µM [inhibitor, partial curve] | –
COc1cc(/C=N/NC(N)=O)c(Br)cc1OCC(=O)Nc1ccccc1C | – | inactive: 26.7%
O=C(COc1ccccc1Cl)Nc1cc(Cl)ccc1O | – | inactive: 2.16%
COc1cc(OC)c(NC(=O)c2ccccc2F)cc1Cl | – | inactive: 4.78%
CCOc1ccccc1N1CC(C(=O)Nc2cccc(S(=O)(=O)N3CCCCC3)c2)CC1=O (configuration not stated) | inconclusive: 20.6 µM [inhibitor, single point] | –
Cc1ccc2cc(CN(Cc3ccco3)C(=O)NC3CCCCC3)c(=O)[nH]c2c1C | active: 7.31 µM | –
CC1Sc2ccc(S(=O)(=O)NCCc3ccc(S(N)(=O)=O)cc3)cc2NC1=O (configuration not stated) | – | inactive: 9.43%
CC(=O)c1c(C(C)=O)c(C)n(-c2ccc(C)c(NC(=O)c3ccccc3Cl)c2)c1C | inconclusive: 18.4 µM [inhibitor, single point] | –
COCCNC(=O)C(=O)NCC1OCCCN1S(=O)(=O)c1cccs1 (configuration not stated) | inconclusive: 23.1 µM [activator, partial curve, poor fit] | –
O=C(Cn1nnc(-c2ccccc2)n1)OCc1csc(-c2ccccc2)n1 | inconclusive: 20.6 µM [activator, single point] | –
C(=N\N1CCN(c2ccccn2)CC1)/c1ccco1 | inconclusive: 18.3 µM [activator, partial curve] | –
CCOC(=O)N1CCN(C(=O)CN(C2CCCCC2)S(=O)(=O)c2ccc(C)cc2)CC1 | inconclusive: 18.4 µM [inhibitor, single point] | –
COc1ccccc1/C=N/N1C(=O)c2cccc3cccc(c23)C1=O | – | inactive: 4.91%
O=C(COC(=O)C12CC3CC(CC(O)(C3)C1)C2)Nc1ccc(Cl)cc1F | inconclusive: 4.61 µM [activator, partial curve] | –
COc1ccccc1C1CC(c2ccc(Br)cc2)=NN1C(=O)c1cccnc1 (configuration not stated) | inconclusive: 29.1 µM [inhibitor, single point] | –

Whole records from above:
Cc1nc2ccccc2n1CCOc1ccc([N+](=O)[O-])cc1 is entered as activity change, negative = inhibition: inactive: -19.7%
Cc1sc2nc(CSC(C)C(=O)Nc3cc(S(C)(=O)=O)ccc3Cl)[nH]c(=O)c2c1C (configuration not stated) is entered as activity change, negative = inhibition: inactive: -5.54%
COc1ccccc1/C=N/N1C(=O)c2cccc3cccc(c23)C1=O is entered as activity change, negative = inhibition: inactive: 4.91%
Nc1cc(=O)[nH]c(SCCSc2ccccc2)n1 is entered as activity change, negative = inhibition: inactive: -10.8%
